{"source": "paper PMC11073699", "about": "“Odorant receptors for floral- and plant-derived volatiles in the yellow fever mosquito, Aedes aegypti (Diptera: Culicidae)” (PLOS ONE, 2024)", "biological_target": "T1, AaegOR71 (Aedes aegypti, UniProt A0A3S7SHD4)", "T1 sequence (A0A3S7SHD4 1-415)": "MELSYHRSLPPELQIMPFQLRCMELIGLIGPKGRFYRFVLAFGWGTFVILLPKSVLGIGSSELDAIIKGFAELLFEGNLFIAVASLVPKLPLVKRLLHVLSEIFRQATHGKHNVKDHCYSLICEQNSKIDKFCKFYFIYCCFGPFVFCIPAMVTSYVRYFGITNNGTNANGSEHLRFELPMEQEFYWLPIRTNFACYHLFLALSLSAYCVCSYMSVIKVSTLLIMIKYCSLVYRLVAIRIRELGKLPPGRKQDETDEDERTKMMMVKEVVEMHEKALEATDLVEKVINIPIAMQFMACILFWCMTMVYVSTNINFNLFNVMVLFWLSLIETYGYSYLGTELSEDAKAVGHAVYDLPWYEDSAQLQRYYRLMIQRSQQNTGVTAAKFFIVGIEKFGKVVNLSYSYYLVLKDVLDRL", "T1 sequence (Q178U6 1-478 partner)": "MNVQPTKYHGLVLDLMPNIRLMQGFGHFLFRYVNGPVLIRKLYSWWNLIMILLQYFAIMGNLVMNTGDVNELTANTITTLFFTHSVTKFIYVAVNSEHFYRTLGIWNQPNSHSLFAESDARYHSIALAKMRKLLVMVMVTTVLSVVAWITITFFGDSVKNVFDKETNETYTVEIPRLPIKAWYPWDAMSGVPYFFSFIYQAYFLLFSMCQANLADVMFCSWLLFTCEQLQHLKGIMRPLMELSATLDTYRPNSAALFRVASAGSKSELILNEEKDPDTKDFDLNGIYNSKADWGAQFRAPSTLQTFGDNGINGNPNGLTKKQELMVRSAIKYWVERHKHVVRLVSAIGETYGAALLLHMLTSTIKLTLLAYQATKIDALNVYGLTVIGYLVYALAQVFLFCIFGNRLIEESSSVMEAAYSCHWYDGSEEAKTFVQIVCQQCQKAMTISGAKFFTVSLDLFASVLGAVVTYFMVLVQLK", "test": "Two-electrode voltage clamp of Xenopus laevis oocytes expressing AaegOR71/Orco (blends, unitary compounds, concentration-response)", "assay_type": "cell-based", "settings": "second series (unlabelled), Oocytes 1-8 individually", "text": "The coding regions of ten AaegOR genes of interest (S3 File) and AaegOrco were synthesized by Twist Bioscience (San Francisco, CA, USA) and cloned into the pENTR plasmid. The Gateway LR directional cloning system (Invitrogen Corp., Carlsbad, CA, USA) was utilized to subclone AaegOR coding regions into the pSP64t-RFA oocyte expression plasmid. Plasmids were purified using the GeneJet Plasmid Miniprep Kit (ThermoFisher Scientific, Waltham, MA, USA). Purified plasmids were sequenced in both directions to confirm coding regions.\nChemical compounds (S6 File) used in the deorphanization of AaegORs were purchased from Acros Organics (Morris, NJ, USA), Alfa Aesar (Ward Hill, MA, USA), and ThermoFisher Scientific (Waltham, MA, USA) at the highest purity available. Compounds were stored as 1M stocks in 100% DMSO. Serial dilutions of each compound were prepared in 10% DMSO and blended by chemical class.\npSP64t-RFA: AaegOR clones were linearized using Xbal, and cRNAs were synthesized using the mMESSAGE mMACHINE ® SP6 kit (Life Technologies, Carlsbad, CA, USA). […] Induced currents were measured indirectly using the two-electrode voltage clamp technique (TEVC). […] Data were analyzed using GraphPad Prism 8 (GraphPad Software Inc., La Jolla, CA, USA). […] Data for at least seven oocytes responding to each compound was analyzed (S7 File).", "note": "Where “and” joins values, the source holds several entries; their conditions need not be identical. Identical values can stand only once. This continues a long series; more values of the same kind are listed elsewhere.", "data": [{"smiles": "O=Cc1ccnc2ccccc12", "note": "[4-quinolinecarboxaldehyde, 4-Quinolinecarboxaldehyde]", "values": [{"measurement": "Raw Data (Response in nA)", "setting": "1e-6 M", "value": "100 nA and 370 nA and 110 nA and 50 nA"}, {"measurement": "Raw Data (Response in nA)", "setting": "5e-6 M", "value": "200 nA and 360 nA and 380 nA and 180 nA and 150 nA (2×) and 480 nA and 100 nA"}]}]}
